Data on 1 molecule can be found in patent US20230174617A1.

The assay addresses T1, IL-10 receptor 1 (IL-10R1), IL-10R His-tag protein (UniProt Q13651).
T1 sequence (looked up): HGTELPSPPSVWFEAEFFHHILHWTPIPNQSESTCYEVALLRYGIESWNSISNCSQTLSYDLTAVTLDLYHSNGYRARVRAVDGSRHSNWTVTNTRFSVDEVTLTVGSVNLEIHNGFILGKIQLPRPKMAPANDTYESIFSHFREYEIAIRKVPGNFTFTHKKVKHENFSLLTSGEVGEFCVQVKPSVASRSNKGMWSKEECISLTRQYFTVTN
Put plainly: BLI, IL-10R His-tag protein on the amine sensor, fusion protein as analyte.

These are yes or no findings as the source states them, for the method shown. Some entries that bind do so weakly or less than the wild type. Where a sequence is shown, tags or fusion partners need not be part of it.

B1: PG-088m (NTIG-IL-10Vm) (Fc fusion)
chain: SHTQPLGVFLFPPKPKDQLMISRTPEVTCVVVDVSQEDPEVQFNWYVDGVEVHNAKTKPREEQFNSTYRVVSVLTVLHQDWLNGKEYKCKVSNKGLPSSIEKTISKAKGQPREPQVYTLPPSQEEMTKNQVSLTCLVKGFYPSDIAVEWESNGQPENNYKTTPPVLDSDGSFFLYSRLTVDKSRWQEGNVFSCSVLHEALHNHYTQKSLSLSLGAAGSGGGGGSGGGGSGGGGSSPGQGTQSENSCTHFPGNLPNMLRDLRDAFSRVKTFFQMKDQLDNLLLKESLLEDFKGYLGCQALSEMIQFYLEEVMPQAENQDPDAKAHVNSLGENLKTLRLRLRRCHRFLPCENGGSGGSGGSKSKAVEQVKNAFNKLQEKGIYKAMSEFDIFINYIEAYMTMKIRN
As for B1, the binding result is “binds”.
